Experimental data from patent publication US11457628B2, “Substituted pyrimidine compound and preparation method and use thereof” (SHENYANG SINOCHEM AGROCHEMICALS R&D CO., LTD., priority 2017, dated 2022).
Read-outs that look alike come from different tables or passages of the source. Some of these results come from one statement about several compounds together.

Tests used:
green peach aphid = test: activity against the green peach aphid, airbrush spray method; assay type: in vivo; settings: after 48 hours
Tetranychus cinnabarinus = test: activity against Tetranychus cinnabarinus, airbrush spray method; settings: after 72 hours
rice blast = assay type: cell-based; settings: in vitro, 24 hours
wheat powdery mildew = test: in vivo protective activity, pot determination, wheat powdery mildew
cucumber downy mildew = test: in vivo protective activity, pot determination, cucumber downy mildew
corn rust = test: in vivo protective activity, pot determination, corn rust

CCc1ncnc(NCCOc2nn(C)c(-c3ccc(C)cc3)c2C)c1Cl [Compound 11-1-57]
more than 80%: lethality for the green peach aphid (green peach aphid; dose 600 ppm) | lethality for the Tetranychus cinnabarinus (Tetranychus cinnabarinus; dose 2.5 ppm) | lethality for the Tetranychus cinnabarinus (Tetranychus cinnabarinus; dose 10 ppm) | lethality for the Tetranychus cinnabarinus (Tetranychus cinnabarinus; dose 100 ppm) | lethality for the Tetranychus cinnabarinus (Tetranychus cinnabarinus; dose 600 ppm)

CCc1ncnc(NCCOc2nn(C)c(-c3ccc(OC)cc3)c2C)c1Cl [Compound 11-1-72]
more than 80%: inhibition activity for rice blast (rice blast; dose 8.3 ppm) | inhibition activity for rice blast (rice blast; dose 25 ppm) | protective effect for control of wheat powdery mildew (wheat powdery mildew; dose 100 ppm) | protective effect for control of wheat powdery mildew (wheat powdery mildew; dose 400 ppm) | protective effect for cucumber downy mildew (cucumber downy mildew; dose 400 ppm) | protective effect for control of corn rust (corn rust; dose 6.25 ppm) | protective effect for control of corn rust (corn rust; dose 25 ppm) | protective effect for control of corn rust (corn rust; dose 100 ppm) | protective effect for control of corn rust (corn rust; dose 400 ppm) | lethality for the green peach aphid (green peach aphid; dose 600 ppm) | lethality for the Tetranychus cinnabarinus (Tetranychus cinnabarinus; dose 2.5 ppm) | lethality for the Tetranychus cinnabarinus (Tetranychus cinnabarinus; dose 10 ppm) | lethality for the Tetranychus cinnabarinus (Tetranychus cinnabarinus; dose 100 ppm) | lethality for the Tetranychus cinnabarinus (Tetranychus cinnabarinus; dose 600 ppm)

CCc1ncnc(NCCOc2cc(-c3ccc(Br)cc3)n(C)n2)c1Cl [Compound 11-34]
more than 80%: lethality for the green peach aphid (green peach aphid; dose 600 ppm) | lethality for the Tetranychus cinnabarinus (Tetranychus cinnabarinus; dose 100 ppm) | lethality for the Tetranychus cinnabarinus (Tetranychus cinnabarinus; dose 600 ppm)

CCc1ncnc(NCCOc2nn(C)c(-c3ccc(F)cc3)c2C)c1Cl [Compound 11-1-4]
more than 80%: protective effect for control of wheat powdery mildew (wheat powdery mildew; dose 100 ppm) | protective effect for control of wheat powdery mildew (wheat powdery mildew; dose 400 ppm) | protective effect for cucumber downy mildew (cucumber downy mildew; dose 6.25 ppm) | protective effect for cucumber downy mildew (cucumber downy mildew; dose 25 ppm) | protective effect for cucumber downy mildew (cucumber downy mildew; dose 100 ppm) | protective effect for cucumber downy mildew (cucumber downy mildew; dose 400 ppm) | protective effect for control of corn rust (corn rust; dose 25 ppm) | protective effect for control of corn rust (corn rust; dose 100 ppm) | protective effect for control of corn rust (corn rust; dose 400 ppm) | lethality for the green peach aphid (green peach aphid; dose 100 ppm) | lethality for the green peach aphid (green peach aphid; dose 600 ppm) | lethality for the Tetranychus cinnabarinus (Tetranychus cinnabarinus; dose 2.5 ppm) | lethality for the Tetranychus cinnabarinus (Tetranychus cinnabarinus; dose 10 ppm) | lethality for the Tetranychus cinnabarinus (Tetranychus cinnabarinus; dose 100 ppm) | lethality for the Tetranychus cinnabarinus (Tetranychus cinnabarinus; dose 600 ppm)

CCc1ncnc(NCCOc2nn(C)c(-c3ccc(Cl)cc3)c2C)c1Cl [Compound 11-1-19]
more than 80%: protective effect for control of wheat powdery mildew (wheat powdery mildew; dose 25 ppm) | protective effect for control of wheat powdery mildew (wheat powdery mildew; dose 100 ppm) | protective effect for control of wheat powdery mildew (wheat powdery mildew; dose 400 ppm) | protective effect for cucumber downy mildew (cucumber downy mildew; dose 400 ppm) | lethality for the green peach aphid (green peach aphid; dose 600 ppm) | lethality for the Tetranychus cinnabarinus (Tetranychus cinnabarinus; dose 2.5 ppm) | lethality for the Tetranychus cinnabarinus (Tetranychus cinnabarinus; dose 10 ppm) | lethality for the Tetranychus cinnabarinus (Tetranychus cinnabarinus; dose 100 ppm) | lethality for the Tetranychus cinnabarinus (Tetranychus cinnabarinus; dose 600 ppm)

COc1ccc(-c2c(C)c(OCCNc3ncnc(C)c3Cl)nn2C)cc1 [Compound 10-1-72]
more than 80%: inhibition activity for rice blast (rice blast; dose 8.3 ppm) | inhibition activity for rice blast (rice blast; dose 25 ppm) | protective effect for control of wheat powdery mildew (wheat powdery mildew; dose 100 ppm) | protective effect for control of wheat powdery mildew (wheat powdery mildew; dose 400 ppm) | protective effect for cucumber downy mildew (cucumber downy mildew; dose 400 ppm) | protective effect for control of corn rust (corn rust; dose 100 ppm) | protective effect for control of corn rust (corn rust; dose 400 ppm) | lethality for the Tetranychus cinnabarinus (Tetranychus cinnabarinus; dose 100 ppm) | lethality for the Tetranychus cinnabarinus (Tetranychus cinnabarinus; dose 600 ppm)

CCc1ncnc(NCCCOc2nn(C)c(-c3ccccc3)c2C)c1Cl [Compound 11-3-1]
more than 80%: inhibition activity for rice blast (rice blast; dose 8.3 ppm) | inhibition activity for rice blast (rice blast; dose 25 ppm) | protective effect for control of wheat powdery mildew (wheat powdery mildew; dose 400 ppm) | protective effect for cucumber downy mildew (cucumber downy mildew; dose 400 ppm) | protective effect for control of corn rust (corn rust; dose 100 ppm) | protective effect for control of corn rust (corn rust; dose 400 ppm) | lethality for the green peach aphid (green peach aphid; dose 600 ppm) | lethality for the Tetranychus cinnabarinus (Tetranychus cinnabarinus; dose 100 ppm) | lethality for the Tetranychus cinnabarinus (Tetranychus cinnabarinus; dose 600 ppm)

Cc1c(OCCNc2ncnc(C(F)F)c2Cl)nn(C)c1-c1ccc(F)cc1 [Compound 12-1-4]
more than 80%: inhibition activity for rice blast (rice blast; dose 8.3 ppm) | inhibition activity for rice blast (rice blast; dose 25 ppm) | protective effect for control of wheat powdery mildew (wheat powdery mildew; dose 25 ppm) | protective effect for control of wheat powdery mildew (wheat powdery mildew; dose 100 ppm) | protective effect for control of wheat powdery mildew (wheat powdery mildew; dose 400 ppm) | protective effect for cucumber downy mildew (cucumber downy mildew; dose 6.25 ppm) | protective effect for cucumber downy mildew (cucumber downy mildew; dose 25 ppm) | protective effect for cucumber downy mildew (cucumber downy mildew; dose 100 ppm) | protective effect for cucumber downy mildew (cucumber downy mildew; dose 400 ppm) | protective effect for control of corn rust (corn rust; dose 6.25 ppm) | protective effect for control of corn rust (corn rust; dose 25 ppm) | protective effect for control of corn rust (corn rust; dose 100 ppm) | protective effect for control of corn rust (corn rust; dose 400 ppm) | lethality for the Tetranychus cinnabarinus (Tetranychus cinnabarinus; dose 10 ppm) | lethality for the Tetranychus cinnabarinus (Tetranychus cinnabarinus; dose 100 ppm) | lethality for the Tetranychus cinnabarinus (Tetranychus cinnabarinus; dose 600 ppm)

COc1ccc(-c2c(C)c(OCCNc3ncnc(C(F)F)c3Cl)nn2C)cc1 [Compound 12-1-72]
more than 80%: protective effect for control of wheat powdery mildew (wheat powdery mildew; dose 100 ppm) | protective effect for control of wheat powdery mildew (wheat powdery mildew; dose 400 ppm) | protective effect for cucumber downy mildew (cucumber downy mildew; dose 400 ppm) | protective effect for control of corn rust (corn rust; dose 6.25 ppm) | protective effect for control of corn rust (corn rust; dose 25 ppm) | protective effect for control of corn rust (corn rust; dose 100 ppm) | protective effect for control of corn rust (corn rust; dose 400 ppm) | lethality for the green peach aphid (green peach aphid; dose 600 ppm) | lethality for the Tetranychus cinnabarinus (Tetranychus cinnabarinus; dose 100 ppm) | lethality for the Tetranychus cinnabarinus (Tetranychus cinnabarinus; dose 600 ppm)

Cc1c(OCCNc2ncnc3scc(Cl)c23)nn(C)c1-c1ccc(Cl)cc1 [Compound 21-1-19]
more than 80%: inhibition activity for rice blast (rice blast; dose 8.3 ppm) | inhibition activity for rice blast (rice blast; dose 25 ppm) | protective effect for control of wheat powdery mildew (wheat powdery mildew; dose 25 ppm) | protective effect for control of wheat powdery mildew (wheat powdery mildew; dose 100 ppm) | protective effect for control of wheat powdery mildew (wheat powdery mildew; dose 400 ppm) | protective effect for cucumber downy mildew (cucumber downy mildew; dose 400 ppm) | protective effect for control of corn rust (corn rust; dose 100 ppm) | protective effect for control of corn rust (corn rust; dose 400 ppm)

Cc1c(OCCNc2ncnc3ccccc23)nn(C)c1-c1ccc(F)cc1 [Compound 19-1-4]
more than 80%: inhibition activity for rice blast (rice blast; dose 2.8 ppm) | inhibition activity for rice blast (rice blast; dose 8.3 ppm) | inhibition activity for rice blast (rice blast; dose 25 ppm) | protective effect for control of wheat powdery mildew (wheat powdery mildew; dose 400 ppm) | protective effect for cucumber downy mildew (cucumber downy mildew; dose 6.25 ppm) | protective effect for cucumber downy mildew (cucumber downy mildew; dose 25 ppm) | protective effect for cucumber downy mildew (cucumber downy mildew; dose 100 ppm) | protective effect for cucumber downy mildew (cucumber downy mildew; dose 400 ppm) | protective effect for control of corn rust (corn rust; dose 400 ppm)

CCc1ncnc(NCCOc2nn(C)c(-c3ccccc3)c2C)c1Cl [Compound 11-1-1]
more than 80%: inhibition activity for rice blast (rice blast; dose 25 ppm) | protective effect for cucumber downy mildew (cucumber downy mildew; dose 6.25 ppm) | protective effect for cucumber downy mildew (cucumber downy mildew; dose 25 ppm) | protective effect for cucumber downy mildew (cucumber downy mildew; dose 100 ppm) | protective effect for cucumber downy mildew (cucumber downy mildew; dose 400 ppm) | protective effect for control of corn rust (corn rust; dose 6.25 ppm) | protective effect for control of corn rust (corn rust; dose 25 ppm) | protective effect for control of corn rust (corn rust; dose 100 ppm) | protective effect for control of corn rust (corn rust; dose 400 ppm) | lethality for the green peach aphid (green peach aphid; dose 100 ppm) | lethality for the green peach aphid (green peach aphid; dose 600 ppm) | lethality for the Tetranychus cinnabarinus (Tetranychus cinnabarinus; dose 10 ppm) | lethality for the Tetranychus cinnabarinus (Tetranychus cinnabarinus; dose 100 ppm) | lethality for the Tetranychus cinnabarinus (Tetranychus cinnabarinus; dose 600 ppm)

Cc1ncnc(NCCCOc2nn(C)c(-c3ccccc3)c2C)c1Cl [Compound 10-3-1]
more than 80%: inhibition activity for rice blast (rice blast; dose 2.8 ppm) | inhibition activity for rice blast (rice blast; dose 8.3 ppm) | inhibition activity for rice blast (rice blast; dose 25 ppm) | protective effect for control of wheat powdery mildew (wheat powdery mildew; dose 400 ppm) | protective effect for cucumber downy mildew (cucumber downy mildew; dose 400 ppm) | protective effect for control of corn rust (corn rust; dose 400 ppm) | lethality for the Tetranychus cinnabarinus (Tetranychus cinnabarinus; dose 600 ppm)

CCc1ncnc(NCCOc2cc(-c3ccccc3)n(C)n2)c1Cl [Compound 11-1]
more than 80%: protective effect for control of wheat powdery mildew (wheat powdery mildew; dose 400 ppm) | protective effect for cucumber downy mildew (cucumber downy mildew; dose 400 ppm) | protective effect for control of corn rust (corn rust; dose 100 ppm) | protective effect for control of corn rust (corn rust; dose 400 ppm) | lethality for the green peach aphid (green peach aphid; dose 600 ppm) | lethality for the Tetranychus cinnabarinus (Tetranychus cinnabarinus; dose 100 ppm) | lethality for the Tetranychus cinnabarinus (Tetranychus cinnabarinus; dose 600 ppm)

Cc1c(OCCCNc2ncnc(C(F)F)c2Cl)nn(C)c1-c1ccccc1 [Compound 12-3-1]
more than 80%: protective effect for control of wheat powdery mildew (wheat powdery mildew; dose 100 ppm) | protective effect for control of wheat powdery mildew (wheat powdery mildew; dose 400 ppm) | protective effect for cucumber downy mildew (cucumber downy mildew; dose 400 ppm) | protective effect for control of corn rust (corn rust; dose 100 ppm) | protective effect for control of corn rust (corn rust; dose 400 ppm) | lethality for the green peach aphid (green peach aphid; dose 600 ppm) | lethality for the Tetranychus cinnabarinus (Tetranychus cinnabarinus; dose 100 ppm) | lethality for the Tetranychus cinnabarinus (Tetranychus cinnabarinus; dose 600 ppm)

Cc1ncnc(NC(C)COc2nn(C)c(-c3ccccc3)c2C)c1Cl (stereo not drawn) [Compound 10-4-1]
more than 80%: protective effect for control of wheat powdery mildew (wheat powdery mildew; dose 100 ppm) | protective effect for control of wheat powdery mildew (wheat powdery mildew; dose 400 ppm) | protective effect for cucumber downy mildew (cucumber downy mildew; dose 25 ppm) | protective effect for cucumber downy mildew (cucumber downy mildew; dose 100 ppm) | protective effect for cucumber downy mildew (cucumber downy mildew; dose 400 ppm) | protective effect for control of corn rust (corn rust; dose 100 ppm) | protective effect for control of corn rust (corn rust; dose 400 ppm) | lethality for the green peach aphid (green peach aphid; dose 600 ppm) | lethality for the Tetranychus cinnabarinus (Tetranychus cinnabarinus; dose 100 ppm) | lethality for the Tetranychus cinnabarinus (Tetranychus cinnabarinus; dose 600 ppm)
